Results taken from publication PMC515366, “A Drosophila Pattern Recognition Receptor Contains a Peptidoglycan Docking Groove and Unusual L,D-Carboxypeptidase Activity” (PLoS Biology, 2004).
No constants are given. Whether binding was seen depends on the method and setting.

Biological target: recombinant Drosophila peptidoglycan recognition protein SA (rPGRP-SA) (Drosophila) (UniProt Q9VYX7)
Assay: SEC; gel-filtration chromatography; Superdex 75 pre-equilibrated in 20 mM Tris-HCl (pH 7.8) and 300 mM NaCl; both purified

B1: recombinant Drosophila peptidoglycan recognition protein SA (rPGRP-SA) (protein, UniProt Q9VYX7 27-203)
chain: GKSRQRSPANCPTIKLKRQWGGKPSLGLHYQVRPIRYVVIHHTVTGECSGLLKCAEILQNMQAYHQNELDFNDISYNFLIGNDGIVYEGTGWGLRGAHTYGYNAIGTGIAFIGNFVDKLPSDAALQAAKDLLACGVQQGELSEDYALIAGSQVISTQSPGLTLYNEIQEWPHWLSNP
With B1 the binding was “no binding”.
